Test results reported in PubChem BioAssay AID540276 (National Center for Advancing Translational Sciences (NCATS), 2011).
Screen size: about 300,000 compounds; about 5,400 (1.8%) were called active. The inconclusive results got no clear call from the source; some entries with a clear call stand among them for comparison. The call rests on the fitted dose curve; tested in HEK293 cells. A potency beside an inconclusive call is a rough fit, not a confirmed value.
Potency means the concentration at half of the fitted maximal effect.

Experiment: qHTS for inhibitors of binding or entry into cells for Marburg Virus
Conditions: Marburg virus pseudotyped entry inhibition, cell reporter; series mostly up to 37.8 µM
In the case of `Cc1cc(Cl)ccc1OCC(=O)Nc1c(C(=O)c2ccccc2)oc2ccccc12`, the Potency is reported as “inactive”.
For `COc1cc(Cn2c(=O)sc3ccccc32)ccc1OCCC(C)C`, the Potency was “inactive”.
With `O/N=C1\CC/C(=N\O)c2nn(-c3ccccc3Cl)nc21` the Potency was inconclusive: 32.6 µM [inhibitor, partial curve, poor fit].
With `CC(C)c1ccc2c(c1)-c1ccccc1S(=O)(=O)N2CC(=O)N1CCCCC1` the Potency was inconclusive: 2.51 µM [activator, single point].
For `O=C(Nc1ccc(Cn2cccn2)cc1)c1ccc(COc2ccc(Br)cc2)cc1`, the Potency was “inactive”.
For `Cc1ccc(NC(=O)Nc2cccs2)c(Cl)c1`, the Potency was inconclusive: 8.2 µM [inhibitor, partial curve, poor fit].
For `CCOc1cc(N2CCOCC2)c(OCC)cc1NC(=O)Cn1[nH]c(=O)c2ccccc2c1=O`, the Potency was “inactive”.
In the case of `c1ccc(C(c2ccccc2)c2ccncc2)cc1`, the Potency is reported as inconclusive: 35.5 µM [inhibitor, single point].
In the case of `Cc1csc(=Nc2cccnc2)n1CC1CCCCC1`, the Potency is reported as inconclusive: 16.4 µM [inhibitor, single point].
For `COC(=O)c1ccc(C#Cc2ccccc2)o1`, the Potency was inconclusive: 31.6 µM [activator, single point].
For `Cc1ccc(NC(=O)c2cc3c([nH]c2=O)CC(C)(C)CC3=O)c(C)c1`, the Potency was inconclusive: 2.51 µM [activator, full curve].
With `CC(C)(C)NC(=O)c1cc2c(ccc3ccccc32)oc1=O` the Potency was “inactive”.
With `COc1ccccc1N/C(=N/S(=O)(=O)c1ccc(C)cc1)c1ccccc1` the Potency was inconclusive: 23.1 µM [inhibitor, single point].
In the case of `CCN1C(=O)NC2C1N(S(C)(=O)=O)CCN2S(C)(=O)=O` (stereo not given), the Potency is reported as “inactive”.
With `Cc1cc(C)nc(N2N=C(c3ccccc3)CC2=O)n1` the Potency was inconclusive: 35.5 µM [activator, single point].
With `Cc1cc(Cl)c(S(=O)(=O)N/N=C/c2ccc3c(c2)OCO3)c(Cl)c1` the Potency was “inactive”.
For `Cc1ccc(S(=O)(=O)N2c3ccccc3-c3c(ssc3=S)C2(C)C)cc1`, the Potency was inconclusive: 12.6 µM [inhibitor, partial curve, poor fit].
With `COC(=O)c1cc(=O)n(-c2ccc(F)cc2)c(=Nc2ccc(F)cc2)s1` the Potency was inconclusive: 9.2 µM [inhibitor, partial curve, poor fit].
For `CCOc1cc(CN2CCN(CCc3ccccc3)C(CCO)C2)ccc1OC` (stereo not given), the Potency was inconclusive: 1.26 µM [inhibitor, single point].
For `CC12CCC(=O)C=C1CCC1C2CCC2(C)C(c3csc(N)n3)CCC12` (stereo not given), the Potency was inconclusive: 17.8 µM [inhibitor, partial curve, poor fit].
For `CCc1ccc(-c2cc3c(=O)n(CC(=O)NCCN4CCCCC4C)nc(C)n3n2)cc1` (stereo not given), the Potency was inconclusive: 6.31 µM [inhibitor, single point].
In the case of `COc1ccc(CCNC(=O)c2cnc3n(c2=O)CCS3)cc1OC`, the Potency is reported as “inactive”.
With `O=C(c1cccc(Cl)c1)N1CCC(=O)N(C(COCc2ccccc2)Cc2ccccc2)CC1` (stereo not given) the Potency was inconclusive: 29.1 µM [inhibitor, single point].
With `CC(C)(C)c1ccc(C(=O)O/N=C(\N)c2ccccn2)cc1` the Potency was inconclusive: 1.58 µM [inhibitor, full curve, poor fit].
For `CC(CNC1CCCCC1)OC(=O)c1ccc([N+](=O)[O-])cc1` (stereo not given), the Potency was “inactive”.
In the case of `COC(=O)/C=C/c1ccc2c(c1)OCO2`, the Potency is reported as “inactive”.
In the case of `COCCNC(=O)CCCCCNS(=O)(=O)c1ccc(C)cc1`, the Potency is reported as “inactive”.
In the case of `Nc1nonc1C(=O)NCCNCc1ccc(Cl)c(Cl)c1`, the Potency is reported as “inactive”.
For `O=C(NN1C(=O)/C(=C/C=C/c2ccco2)SC1=S)c1ccncc1`, the Potency was inconclusive: 17.8 µM [inhibitor, partial curve, poor fit].
In the case of `CC(C)(C)C(=O)/C=c1\[nH]c(=O)/c(=C\c2ccc(F)cc2)s1`, the Potency is reported as “inactive”.
In the case of `Cc1ccc(C(CNC(=O)Nc2ccccc2)N2CCN(C)CC2)cc1` (stereo not given), the Potency is reported as inconclusive: 35.5 µM [inhibitor, single point].
In the case of `CCOc1cc2c(cc1OCC)-n1cccc1C(c1ccc(C(C)C)cc1)NC2` (stereo not given), the Potency is reported as inconclusive: 7.94 µM [inhibitor, partial curve, poor fit].
In the case of `Cc1ccccc1OCC1Cc2c(nc(N)c(C#N)c2N)O1` (stereo not given), the Potency is reported as “inactive”.
For `CCc1ccc(CNC(=O)Cn2c(-c3cccs3)cc3cc(F)ccc32)cc1`, the Potency was inconclusive: 10 µM [inhibitor, partial curve, poor fit].
With `COc1ccc2cc(CCNS(=O)(=O)c3c(C)cc(C)cc3C)c(=O)[nH]c2c1` the Potency was inconclusive: 8.91 µM [inhibitor, partial curve, poor fit].
In the case of `COC(=O)c1cc(Br)ccc1NC(=O)Nc1ccc(C)cc1`, the Potency is reported as “inactive”.
For `O/N=C/c1cc(Cl)ccc1OCc1ccccc1Cl`, the Potency was inconclusive: 35.5 µM [inhibitor, single point].
In the case of `Cc1ccc2nc(-c3cccnc3SCC(=O)N3c4ccccc4CC3C)[nH]c2c1` (stereo not given), the Potency is reported as inconclusive: 5.17 µM [activator, partial curve, poor fit].
For `CCOC(=O)c1cn2nc(-c3ccc(OC)cc3)cc2nc1C1CCN(C(=O)OC(C)(C)C)CC1`, the Potency was inconclusive: 5.8 µM [inhibitor, full curve, poor fit].
With `CCOC(=O)NC(=O)C(=CNc1ccccc1C)C(=O)NC(=O)OCC` the Potency was inconclusive: 14.1 µM [activator, partial curve, poor fit].
For `COc1cc(CN2CCN(C(O)(c3ccccc3)c3ccccc3)CC2)cc(OC)c1OC`, the Potency was inconclusive: 2.51 µM [inhibitor, full curve, poor fit].
With `Cc1cccc(C)c1C(=NCCN(C)C)c1ccccc1` the Potency was inconclusive: 15.8 µM [inhibitor, partial curve, poor fit].
With `Cc1ccc(CSc2nc3ccc(NC(=O)COc4ccc(F)cc4)cc3s2)cc1` the Potency was inconclusive: 2.51 µM [inhibitor, full curve, poor fit].
In the case of `CC(=O)Oc1ccccc1-c1nc(/C=C/c2ccccc2)no1`, the Potency is reported as “inactive”.
In the case of `COc1ccc2nc(NC(=O)CSC3=NCCS3)sc2c1`, the Potency is reported as inconclusive: 35.5 µM [inhibitor, single point].
